Earlier results in patent publication US20250002855A1, “METHODS FOR EXPANDING T CELLS FOR THE TREATMENT OF CANCER AND RELATED MALIGNANCIES” (Immatics US, Inc., priority 2020, published 2025).
At least one structure is not confirmed: it was looked up by name or label, or the drawing left a doubt.

System: tumor-infiltrating lymphocytes
Details: in the presence of IL-21; after 2 weeks of culture; cited from earlier work

Cc1[nH]c2ccccc2c1CCNCc1ccc(/C=C/C(=O)NO)cc1 [panobinostat]
Tcm αβ T cells (CD28+CD62L+): increase Tcm αβ T cells
